This is one part of the list. Shown are side measurements of this screen, not its main read-out; they come without a call.
assay: rapamycin-like growth block in BY4741 yeast – BY4741 wild type, TORC1 bypass strain, mechanism study for yeast TOR pathway GFP screen (AID 504456); conditions: S. cerevisiae BY4741 spot growth rating, 48-72 h, at 30 µM

Row | Structure (SMILES) | growth rating (0-3)
1 | O=C(OCn1ncc(Br)c(Br)c1=O)c1ccc(F)cc1 | 3
2 | CCOC(=O)CSC1=NC(=O)/C(=C\c2ccc(Cl)cc2)S1 | 3
3 | CNc1nc(N)c([N+](=O)[O-])c(NCc2ccccc2)n1 | 3
4 | CNc1nc(N)c([N+](=O)[O-])c(NCc2ccco2)n1 | 3
5 | O=[N+]([O-])c1ccc(S(=O)(=O)c2cccc(C(F)(F)F)c2)nc1 | 3
6 | N/C(Cc1ccc(Cl)cc1)=N\OC(=O)c1cccc2ccccc12 | 3
7 | Cc1ccc(C(c2cc(Cl)c3cccnc3c2O)N2CCN(C)CC2)cc1 (stereo not drawn) | 3
8 | Nc1nc(Nc2cccc(Cl)c2)nc(Nc2cccc(F)c2)c1[N+](=O)[O-] | 3
9 | CCCOc1ccc(C(=O)NNC(=S)NC(=O)CC)cc1 | 3
10 | Clc1cc(Cl)cc(Nc2cc(Oc3cccc(Cl)c3)nc(NCc3ccccc3)n2)c1 | 3
11 | COc1ccc(C(=O)NNC(=S)NC(=O)/C=C/c2cccs2)cc1 | 3
12 | CC(C)(C)c1ccc(NC(=O)COC(=O)c2ccc([N+](=O)[O-])s2)cc1 | 0
13 | CCSc1nnc(NC(=O)c2ccccn2)s1 | 0
14 | Cc1ccc(C(=O)NNC(=S)NC(=O)COc2ccccc2)cc1 | 3
15 | COc1ccc(/C=C/C(=O)NC(=S)NNC(=O)c2cnccn2)cc1 | 3
16 | O=C(OCn1ncc(Br)c(Br)c1=O)c1c(F)cccc1F | 3
17 | CNc1nc(N)c([N+](=O)[O-])c(Nc2cccc(F)c2)n1 | 3
18 | COCCCNc1nc(N)c([N+](=O)[O-])c(Nc2cccc(F)c2)n1 | 3
19 | COc1cccc(-c2cc(Nc3cc(C)[nH]n3)nc(NCc3ccccc3)n2)c1 | 3

Row | Structure (SMILES) | growth rating (0-3)
20 | CC(C)(C)C(=O)C(Cl)C(=O)Nc1ccccc1 (stereo not drawn) | 3
21 | CC(=O)SC(C[N+](=O)[O-])c1cn(C(C)=O)c2ccccc12 (stereo not drawn) | 3
22 | Cc1cc(C(=O)Nc2nc(-c3ccccn3)cs2)ccc1[N+](=O)[O-] | 3
23 | Oc1c(I)cc(Cl)c2cccnc12 | 0
24 | CC(Oc1ccc(Br)cc1)C(=O)Nc1nc(-c2ccccn2)cs1 (stereo not drawn) | 3
25 | Clc1ccc(N=c2ssnc2Cl)cc1 | 3
26 | CCC(C)Nc1nc(N)c([N+](=O)[O-])c(Nc2cccc(F)c2)n1 (stereo not drawn) | 3
27 | CCc1ccc(OCC(=O)NNC(=S)NC(=O)C2CC2)c(Br)c1 | 3
28 | CC(=O)Nc1ncnc2c1c(-c1ccc(Cl)cc1)nn2C(C)(C)C | 3
29 | Cc1cc(Nc2cc(Nc3ccccc3)nc(NCc3ccccc3)n2)n[nH]1 | 3
30 | CNc1nc(N)cc(Nc2cccc(Cl)c2)n1 | 3
31 | CCOC(=O)c1c(C)oc2c1c(C(c1cccnc1)N1CCOCC1)c(O)c1ccccc12 (stereo not drawn) | 3
32 | O=C(Oc1c(Cl)cc(Cl)c2cccnc12)c1cccc([N+](=O)[O-])c1 | 0
33 | CC(C)(C)C(=O)NC(=S)NNC(=O)c1ccc(-c2ccccc2)cc1 | 3
34 | COC(=O)CCS(=O)(=O)c1nc(-c2ccccc2)cc(C(F)(F)F)n1 | 3
35 | CNc1nc(N)c([N+](=O)[O-])c(Nc2ccccc2)n1 | 3
36 | Cc1ccc(NC(=O)c2ccc(Cl)c(N3C(=O)C=CC3=O)c2)cc1 | 3
37 | CNc1nc(N)c([N+](=O)[O-])c(Nc2ccccc2OC)n1 | 3
38 | Nc1nc(NC2CCCCC2)nc(Nc2cccc(F)c2)c1[N+](=O)[O-] | 3

Compounds 28–29, reprinted for reference:
Row | Structure (SMILES) | growth rating (0-3)
28 | CC(=O)Nc1ncnc2c1c(-c1ccc(Cl)cc1)nn2C(C)(C)C | 3
29 | Cc1cc(Nc2cc(Nc3ccccc3)nc(NCc3ccccc3)n2)n[nH]1 | 3
